{"source": "paper doi:10.1101/580043", "target": "T1, PRG-1, endogenous, immunoprecipitated from wild-type N2 animals (C. elegans (endogenous in N2 animals)) (UniProt P90786)", "T1 sequence": "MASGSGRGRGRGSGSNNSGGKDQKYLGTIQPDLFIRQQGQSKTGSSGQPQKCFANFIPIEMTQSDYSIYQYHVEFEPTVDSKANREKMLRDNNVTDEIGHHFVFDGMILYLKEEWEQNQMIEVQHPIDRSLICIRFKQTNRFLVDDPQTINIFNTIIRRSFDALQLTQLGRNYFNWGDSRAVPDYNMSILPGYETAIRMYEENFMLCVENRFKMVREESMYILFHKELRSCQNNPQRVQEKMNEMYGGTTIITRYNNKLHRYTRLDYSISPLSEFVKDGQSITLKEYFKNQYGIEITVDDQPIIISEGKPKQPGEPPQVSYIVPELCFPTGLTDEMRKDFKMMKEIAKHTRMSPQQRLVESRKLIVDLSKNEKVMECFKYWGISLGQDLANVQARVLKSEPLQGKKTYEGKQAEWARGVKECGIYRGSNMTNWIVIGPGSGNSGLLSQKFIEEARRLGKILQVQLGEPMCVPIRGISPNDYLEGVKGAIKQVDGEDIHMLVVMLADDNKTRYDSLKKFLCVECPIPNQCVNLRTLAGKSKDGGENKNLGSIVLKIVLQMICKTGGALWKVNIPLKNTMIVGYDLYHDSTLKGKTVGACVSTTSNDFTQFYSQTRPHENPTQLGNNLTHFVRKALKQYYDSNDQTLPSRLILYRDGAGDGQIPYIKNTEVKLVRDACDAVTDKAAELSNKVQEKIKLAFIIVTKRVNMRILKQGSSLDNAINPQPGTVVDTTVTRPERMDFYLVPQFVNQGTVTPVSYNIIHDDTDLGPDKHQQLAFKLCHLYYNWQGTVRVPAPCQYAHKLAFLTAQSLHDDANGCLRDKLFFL", "assay": "affinity purification with mass spectrometry", "note": "No constants are given. Whether binding was seen depends on the method and setting. In cells and extracts the contact can be indirect. Here binding means that the protein was enriched with, or labelled near, the bait; the list need not be complete."}
{"binder": "DEPS-1, endogenous, in lysate of wild-type N2 animals (protein, UniProt Q9N303 1-619) MSERQSKYFDYQGIVISSTGQDNQDSETDLVYLIQAHGKAAPKNIMYGVSKCAFVPTNLERNFDNIEEAKNLERRSKIPLKFGEVILWNESDCDHDKRIILHIKREKPIYEASSSRNGLILKVGGVIQPTSTTSFWTPLCTVTMPETEATRAEPDVWLYAWIRFETTMKSGLDPFNMTATFESFDSCDPSDQARVCEAPWNAGSPDSKFGVWRPDPKPADSDDEIDIEPREGWHLPEDKWAEVIKMQLGLYVGERLLICKELSQFDFIIPLQKPFSRGTDKTLIYPAVGEYFHFSAIWSMQHNGFLIYELQPVPLLRQHVTSVNGNLLTRVVPASIRGLFVDKEGTLGLIDDPHHLLSFFEFHPAGYEFLKAMAEVRAVRTSENKSVRYRIVRTSGMSIFENWLRDTQFVVGPVKGIRINEDTVICAKHPNVYFKIPNNLKEGIPIGGGVQFVGKRQAGVDSEIMITECSPCPAFTCKNYSVSGDTRLFQVYLKPNCDHEQLAESDSMGFVDFRELETPCRGKFLAWVRESITVNDCRRAATIMEVCSTAICPPLIAMSANSSRATSARTTPAGSSIGSRSSIQSRASAATSVSSNRFVGPSSRRTPSGTPQSSTSSRV", "values": [{"measurement": "binding", "value": "binds"}]}
